According to PMC9264908:
These are yes or no findings as the source states them, for the method shown. In cells and extracts the contact can be indirect.

Amino acid sequences for entries named in this document (tags omitted). Residues count along the entry.
UniProt Q15116, residues 25-288: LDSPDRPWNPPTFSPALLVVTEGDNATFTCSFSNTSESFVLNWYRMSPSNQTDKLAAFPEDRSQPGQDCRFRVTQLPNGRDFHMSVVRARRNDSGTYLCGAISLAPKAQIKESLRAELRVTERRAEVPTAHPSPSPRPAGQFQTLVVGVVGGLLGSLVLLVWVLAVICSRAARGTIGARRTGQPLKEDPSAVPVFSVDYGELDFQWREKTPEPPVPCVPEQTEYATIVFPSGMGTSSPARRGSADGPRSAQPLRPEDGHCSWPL
UniProt P08581, residues 25-1390: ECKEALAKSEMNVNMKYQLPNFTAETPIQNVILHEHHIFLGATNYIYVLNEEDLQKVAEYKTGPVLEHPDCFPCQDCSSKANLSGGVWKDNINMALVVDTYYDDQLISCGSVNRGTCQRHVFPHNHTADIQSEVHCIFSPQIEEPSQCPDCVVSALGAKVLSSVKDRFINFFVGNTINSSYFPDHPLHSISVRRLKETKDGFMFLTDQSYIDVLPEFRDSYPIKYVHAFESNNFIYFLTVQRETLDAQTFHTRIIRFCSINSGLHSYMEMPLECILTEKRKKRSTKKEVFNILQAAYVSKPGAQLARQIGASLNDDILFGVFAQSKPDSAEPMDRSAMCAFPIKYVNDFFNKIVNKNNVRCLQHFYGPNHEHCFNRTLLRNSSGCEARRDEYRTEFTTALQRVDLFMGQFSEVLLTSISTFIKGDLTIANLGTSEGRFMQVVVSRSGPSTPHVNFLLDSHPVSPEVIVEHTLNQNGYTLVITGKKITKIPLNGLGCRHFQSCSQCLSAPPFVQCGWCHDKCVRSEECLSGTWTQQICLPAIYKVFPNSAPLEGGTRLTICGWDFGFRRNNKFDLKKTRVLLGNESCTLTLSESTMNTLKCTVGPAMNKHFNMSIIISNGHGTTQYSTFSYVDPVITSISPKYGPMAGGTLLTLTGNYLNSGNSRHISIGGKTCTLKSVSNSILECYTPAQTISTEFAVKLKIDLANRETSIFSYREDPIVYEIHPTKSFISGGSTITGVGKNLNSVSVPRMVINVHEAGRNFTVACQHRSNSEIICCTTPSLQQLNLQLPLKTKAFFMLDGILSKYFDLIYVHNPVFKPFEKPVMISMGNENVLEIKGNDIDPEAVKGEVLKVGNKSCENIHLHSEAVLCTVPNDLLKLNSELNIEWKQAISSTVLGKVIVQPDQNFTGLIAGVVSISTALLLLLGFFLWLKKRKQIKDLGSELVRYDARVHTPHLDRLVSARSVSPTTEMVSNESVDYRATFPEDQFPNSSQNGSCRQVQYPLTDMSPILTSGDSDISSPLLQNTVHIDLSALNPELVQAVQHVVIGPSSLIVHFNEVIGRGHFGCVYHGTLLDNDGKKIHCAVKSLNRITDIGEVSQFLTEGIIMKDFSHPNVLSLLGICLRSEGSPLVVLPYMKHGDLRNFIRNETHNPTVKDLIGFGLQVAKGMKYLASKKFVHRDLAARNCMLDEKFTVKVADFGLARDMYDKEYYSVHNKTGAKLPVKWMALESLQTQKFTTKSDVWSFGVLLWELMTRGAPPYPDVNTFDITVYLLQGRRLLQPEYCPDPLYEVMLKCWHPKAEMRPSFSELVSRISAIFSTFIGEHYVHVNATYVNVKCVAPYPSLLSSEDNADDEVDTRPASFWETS

Target: programmed cell death protein 1 (PD-1) (human (endogenous in PDAC cells)) (UniProt Q15116)
Test: co-IP; PD-1 as bait: 1 mg pre-cleared PDAC cell lysate incubated overnight at 4 °C with 75 µg polyclonal anti-PD-1 or IgG; western blot with anti-MET and anti-PD-1 mAbs

“c-MET (MET, mesenchymal-epithelial transition factor) (from UniProt P08581 25-1390) (receptor)” was tested. Which binding did it give?
The binding was “no binding”.
